Results on 18 molecules are retold here after article PMC10163288.

Some of the results follow.

Sequences and labels used below:
B1: il2ra_site2_3nfp_normal_mot_HHH_b1_05627_af2_000000038_0001_43_56_H_._HHH_b2_04217_0001_0000500030_0000001_0 (protein)
chain: SSSSDKAERYLEAALLLLEEAKEAGDEESAREIAEAALLLAENLGDEERFEQIREILEELSSSSS
B2: il2ra_site1_2b5i_normal_mot_HHH_b1_01495_af2_000000272_0001_42_56_H_._HHH_b1_06086_0001_0000200018_0000001_0_af2pred_dldesign_0_af2pred (protein)
chain: SSSSDEKYDELYDLVLEALRLKKAGKKEEALKKLEEALKLAKELGDEKLVKEIEYLLNLLKSSSS
B3: il2ra_site2_3nfp_sap_17_mot_HHH_b2_04319_af2_000000252_0001_42_56_H_._HHH_b2_08127_0001_0000100001_0000001_0_0001 (protein)
chain: SSSSDEEAEELVRMALRALERLLRRGDEEMVELTEEYLEAAIKLHNDEEAEELLEELKKEYSSSS
B4: il2ra_site1_1z92_sap_14_mot_HHH_b1_02241_000000292_0001_1_14_H_._HHH_b2_08217_0001_0000300021_0000001_1_0001 (protein)
chain: SSSSTREATRLVLEIVAKVAREFNLSEEELLELIKLADELLRKGYSEEEIEEILRELAEKSSSSS
B5: il2ra_site2_3nfp_sap_14_mot_HHH_b1_00159_af2_000000185_0001_1_18_H_._HHH_b2_01146_0001_0000200016_0000001_0_0001 (protein)
chain: SSSSDDAEEYLRAALALAREAIEEGDKELAEKILRLIAKAAEDAKDEEALKEAEELLKEVGSSSS
B6: il2ra_site2_3nfp_normal_mot_HHH_b1_00660_af2_000000090_0001_40_57_H_._HHH_b1_08382_0001_0000600040_0000001_0_af2pred_0001_af2pred (protein)
chain: SSSSSSEEVEELIRQAEELLKEGNPEEAEELLRRAAHLAAELGDFELFTLIHAALEEVEHSSSSS
B7: il2ra_site1_1z92_sap_19_mot_HHH_b1_03465_af2_000000044_0001_40_52_H_._HHH_b1_05000_af2_0001_0000600027_0000001_0_0001_af2pred_0001_af2pred_1 (protein)
chain: SEELREEAERLAGGDPELALLIFDALFALKNGVPPRDIELVLKNAAELSGIPPEKVEEALELAEP
B8: il2ra_site1_2b5i_normal_mot_HHH_b2_04910_000000118_0001_1_19_H_._HHH_b2_01005_0001_0000600047_0000001_0_af2pred_dldesign_0_af2pred (protein)
chain: SSSSSPEGKKLRELFEKAEELFKAGKPEEAKKVLEEALELAKKLGMTSMLKMIESALKEISSSSS
B9: il2ra_site1_3nfp_normal_mot_HHH_b2_05101_000000267_0001_1_16_H_._ems_3hM_201_0001_0001100032_0000001_1 (protein)
chain: DRESAEASDLLIKVAAKLQNRNVDPEEVERVIQEVAEELREEIQNPEAREAVQFAAEFLIERVCS
B10: il2ra_site2_3nfp_sap_22_mot_ems_p1-15H-GBL-16H-GBL-14H_0089_0001_0001_0001_af2_000000072_0001_19_33_H_._HHH_b2_04595_0001_0000100001_0000001_0_0001 (protein)
chain: SSSSSSDEEEIEELLELVEKIDNRDERAHALMEASELAARLGDEELAREVLRLFAEIQSSSSSSS
B11: il2ra_site1_3nfp_sap_16_mot_HHH_b1_00461_af2_000000238_0001_1_17_H_._HHH_b2_08025_0001_0000300024_0000001_0_0001_af2pred_0001_af2pred_swapped (protein)
chain: SSSSSRILRFLEELARKAFERNDKKQLEAILKLIRKAAKQFKDEEVEELLELVEELLKKLSSSSS
B12: il2ra_site2_2erj_sap_22_mot_HHH_b1_00004_000000238_0001_1_17_H_._d9cc8bee132a485d0ac603caa35b40b0_0001_0001_0000400014_0000001_0_0001_af2pred_0001_af2pred (protein)
chain: SSSSSSEEVRRRVEELLEEAKKIEDYHEAFKVLQEASQIADEYDDEEIARLVHEVVRELSSSSSS
B13: il2ra_site2_2erj_sap_19_mot_d66c371ed59d2564589b99897c04b328_0001_000000241_0001_17_32_H_._2092974533909c8578d6a2c5de6c41b7_0001_1_0001_0000300016_0000001_0_000 … (protein)
chain: SSSSSSDIEERVEELLEEAKRIKDLREALRVLQEASQLADEQDDEELFEEITKVLRKLSSSSSSS
B14: il2ra_site1_1z92_normal_mot_HHH_b1_01565_af2_000000147_0001_1_17_H_._HHH_b2_00438_0001_0000400057_0000001_0 (protein)
chain: SSSSSTAVEAAAKAVAQAAGLSEEQEEELEKLARELLEEGYSELEILKILDERALELLESSSSSS
B15: il2ra_site1_1z92_sap_27_mot_HHH_b2_03302_000000138_0001_21_37_H_._HHH_b1_05567_0001_0000100001_0000001_0_0001_af2pred_dldesign_0_af2pred (protein)
chain: SSSSSSDKKEAVRLFNEANELCLAGKDEEAKEKLKKALELAKKAGANLLARMIELALKSLSSSSS
B16: il2ra_site1_3nfp_normal_mot_7cbdf275c6f204f9d60ac8802deb44b6_0001_1_000000034_0001_19_33_H_._HHH_b1_00853_af2_0001_0000200008_0000001_0 (protein)
chain: SSSSSRALEFAEELARKAFENNNEEQLRHLEKLVERALKQVGDPEAEELLKLIRELLEELSSSSS
B17: il2ra_site2_3nfp_normal_mot_HHH_b2_04451_000000238_0001_21_37_H_._HHH_b1_08573_0001_0000400020_0000001_0 (protein)
chain: SSSDEEERIEELIELVEELIKEGDRTEALQVLLEASELAAKLGDEELARILLELFLLLQEKSSSS
B18: il2ra_site2_2erj_sap_26_mot_HHH_b2_01204_af2_000000051_0001_19_34_H_._HHH_b2_07809_0001_0000700013_0000001_1_0001 (protein)
chain: SSSSDLHELFRLAVEIMRLIAEGDPEKAEELIQELRELIEETNSEAAKKILRHLERHLEESSSSS

The target in this test is il2ra, P01589. Briefly: yeast display titration.
As for B1, the “apparent Kd” value is “inactive: no binding seen”. The value for B2 was “inactive: no binding seen”; that for B3 was “inactive: no binding seen”; that for B4 was “inactive: no binding seen”. For B5, the “apparent Kd” value was “inactive: no binding seen”. In the case of B6 it was “inactive: no binding seen”; in that of B7, “inactive: no binding seen”.

For B8, the “apparent Kd” value was “inactive: no binding seen”. In the case of B9, the “apparent Kd” value is “inactive: no binding seen”. In the case of B10 it was “inactive: no binding seen”; in that of B11, “inactive: no binding seen”. In the case of B12 it was “inactive: no binding seen”. The value for B13 was “inactive: no binding seen”; that for B14 was “inactive: no binding seen”. B15: the “apparent Kd” value was “inactive: no binding seen”. The value for B16 was “inactive: no binding seen”. Take B17: the “apparent Kd” value was “inactive: no binding seen”. In the case of B18 it was “inactive: no binding seen”.
